The values below come from publication PMC12187018.

In one assay the target is T1, Flag-P2X7 (R) (UniProt Q99572).
T1 sequence: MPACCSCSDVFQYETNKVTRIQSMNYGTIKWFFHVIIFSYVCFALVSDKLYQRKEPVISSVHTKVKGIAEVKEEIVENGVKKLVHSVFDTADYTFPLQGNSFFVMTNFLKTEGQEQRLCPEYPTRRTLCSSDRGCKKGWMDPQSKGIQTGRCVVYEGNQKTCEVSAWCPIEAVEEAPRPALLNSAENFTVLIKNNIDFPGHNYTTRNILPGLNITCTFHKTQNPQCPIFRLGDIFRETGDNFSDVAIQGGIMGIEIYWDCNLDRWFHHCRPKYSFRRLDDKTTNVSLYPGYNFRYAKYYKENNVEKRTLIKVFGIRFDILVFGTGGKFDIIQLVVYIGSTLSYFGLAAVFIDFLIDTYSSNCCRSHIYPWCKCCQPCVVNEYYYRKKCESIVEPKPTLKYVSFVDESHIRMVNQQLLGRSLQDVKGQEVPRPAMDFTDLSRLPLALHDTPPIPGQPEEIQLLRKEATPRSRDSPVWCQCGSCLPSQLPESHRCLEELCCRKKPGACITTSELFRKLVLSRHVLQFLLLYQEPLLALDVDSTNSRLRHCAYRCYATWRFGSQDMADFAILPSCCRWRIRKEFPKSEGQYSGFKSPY
The experiment in a line: co-IP; 293T cells co-transfected with HA-Env (virulent or vaccine) and one Flag-tagged host protein; lysis in 1% Triton X-100, 50 mM Tris-HCl pH 7.4, 150 mM NaCl; anti-Flag or anti-HA magnetic beads overnight; also done with 50 μM KCl (S2 Fig B-C).

For assay [1], the target named is EIAV Env of the virulent strain (EIAV_DLV34), in infected macrophages (EIAV, virulent strain EIAV_DLV34). The experiment in a line: co-IP; immunoprecipitation with anti-Env antibodies from EIAV-infected equine macrophages; endogenous P2X7 (R), NLRP3 and NEK7 detected by blot.

Results are given in words; binding and its absence hold for the method and conditions named. In cells and extracts the contact can be indirect. Binding can be weak; no strength is given. For some assays here: Sequences can lack the tags named with a protein.

Take “HA-Env of the virulent EIAV strain (virulent-Env) (EIAV, virulent strain EIAV_DLV34)”: the binding result in the assay with Flag-P2X7 (R) is “binds”.

B1: P2X7 (R), endogenous in equine macrophages (receptor, UniProt F6Q5L6 1-561)
chain: MPACCSWNDVFQYETNKVTRIQSMNYGTIKWICHLIVFSYVIFALVSDKRYQRKEPLISSVHTKVKGIAEVREEIIESGAKKVVQSVFDTADYTFPLQGNSFFVMTNFLKTEGQEQGLCPEYPTRRTLCSSDRGCKKGWMDPQSKGIQTGRCIVYKGNQKTCEVSAWCPIEAVEEAPRPALLNSAENFTVLIKNNIDFPGHNYTTRNFLPGLNITCTFHKTQNPQCPIFRLGDIFRETGDHFSDVAIQGGIMGIEIYWDCNLDRWFHHCRPKYSFRRLDDKTASESSYPGYNFRYAKYYKENNVEKRTLIKVFGIRFDILVFGTGGKFDIIQLIVFVGSTLSYFGLATLFIDFLINTYSSKFCRSSIYPCCKYCEPCSVNEYYYRKKCESIVEPKPRPSMDFTDLSRLPLSLQDPHVTPGQPEDIQLLSEEVTPRHKDSPHWCQCGNCLPSQLPESHRCLEELCCRKKMGACITTSEPFRKLVLSRRVLQFLLLYREPLLVLDADSTNSQLRHCAYRCYATWRFGSQDLADFAILPSCCRWRIRREFPRSEGQYSGFKSPY
On to B1, for which the binding entry in assay [1] is listed as “binds”.
